# Experimental data as given in the supplement of paper PMC8728848.
# Some of the results follow.
# B1: CREG (Mus musculus), O88668 (protein)
# chain: MAARAPELARSLLAALLAPALVALLVSPASGRGGRDHGDWDVDRRLPPLPPREDGPRVARFVTHVSDWGSLATISTIKEVRGWPFADIISISDGPPGEGTGEPYMYLSPLQQAVSDLQENPEATLTMSLAQTVYCRNHGFDPQSPLCVHIMMSGTVTKVNKTEEDYARDSLFVRHPEMKHWPSSHNWFFAKLKISRIWVLDYFGGPKVVTPEEYFNVTLQ
# How the values were obtained:
# Assay in all cases: glycan array binding signal (z-score within array); higher = stronger binding
# Settings in all cases: glycan notation: IUPAC condensed, linker removed
# [1] = target: Man(a1-2)Man(a1-6)[Man(a1-3)]Man(a1-6)[Man(a1-2)Man(a1-2)Man(a1-3)]Man(b1-4)GlcNAc(b1-4)GlcNAc
# Summary of the method: (§1)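 Glycan array data came from 3228 arrays in the Consortium for Functional Glycomics database, and only arrays with an available protein sequence were kept. Glycan names were put into IUPAC-condensed notation, and columns mapping to the same glycan were averaged. The binding signal is a within-array Z-score, averaged across arrays of one protein sequence run at different concentrations or buffers and across linkers. A negative Z-score can be read as non-binding.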
# Man(a1-3)[Man(a1-6)]Man = target: Man(a1-3)[Man(a1-6)]Man
# Summary of the method: as §1
# [2] = target: Man(a1-3)[Man(a1-6)]Man(a1-6)[Man(a1-2)Man(a1-3)]Man(b1-4)GlcNAc(b1-4)GlcNAc
# Summary of the method: as §1
# [3] = target: Man(a1-3)[Man(a1-6)]Man(a1-6)[Man(a1-3)]Man
# Summary of the method: as §1
# [4] = target: Man(a1-3)[Man(a1-6)]Man(a1-6)[Man(a1-3)]Man(b1-4)GlcNAc(b1-4)GlcNAc
# Summary of the method: as §1
# [5] = target: Man(a1-3)[Man(a1-6)]Man(b1-4)GlcNAc(b1-4)GlcNAc
# Summary of the method: as §1
# Man(a1-6)Man = target: Man(a1-6)Man
# Summary of the method: as §1
# Man(b1-4)GlcNAc = target: Man(b1-4)GlcNAc
# Summary of the method: as §1
# Neu5Ac(a2-3)Gal = target: Neu5Ac(a2-3)Gal
# Summary of the method: as §1
# [6] = target: Neu5Ac(a2-3)Gal(b1-3)GalNAc
# Summary of the method: as §1
# [7] = target: Neu5Ac(a2-3)Gal(b1-3)GalNAc(b1-3)Gal(a1-4)Gal(b1-4)Glc
# Summary of the method: as §1
# [8] = target: Neu5Ac(a2-3)Gal(b1-3)GalNAc(b1-4)[Neu5Ac(a2-3)]Gal(b1-4)Glc
# Summary of the method: as §1
# [9] = target: Neu5Ac(a2-3)Gal(b1-3)GalNAc6S
# Summary of the method: as §1
# [10] = target: Neu5Ac(a2-3)Gal(b1-3)GlcNAc
# Summary of the method: as §1
# [11] = target: Neu5Ac(a2-3)Gal(b1-3)GlcNAc(b1-2)Man(a1-3)[Neu5Ac(a2-3)Gal(b1-3)GlcNAc(b1-2)Man(a1-6)]Man(b1-4)GlcNAc(b1-4)GlcNAc
# Summary of the method: as §1
# [12] = target: Neu5Ac(a2-3)Gal(b1-3)GlcNAc(b1-3)Gal(b1-3)GlcNAc
# Summary of the method: as §1
# [13] = target: Neu5Ac(a2-3)Gal(b1-3)GlcNAc(b1-3)Gal(b1-4)GlcNAc
# Summary of the method: as §1
# [14] = target: Neu5Ac(a2-3)Gal(b1-3)GlcNAc(b1-3)GalNAc
# Summary of the method: as §1
# [15] = target: Neu5Ac(a2-3)Gal(b1-3)GlcNAc6S
# Summary of the method: as §1
# [16] = target: Neu5Ac(a2-3)Gal(b1-3)[Fuc(a1-4)]GlcNAc
# Summary of the method: as §1
# [17] = target: Neu5Ac(a2-3)Gal(b1-3)[Fuc(a1-4)]GlcNAc(b1-3)Gal(b1-3)[Fuc(a1-4)]GlcNAc
# Summary of the method: as §1
# [18] = target: Neu5Ac(a2-3)Gal(b1-3)[Fuc(a1-4)]GlcNAc(b1-3)Gal(b1-4)[Fuc(a1-3)]GlcNAc
# Summary of the method: as §1
# [19] = target: Neu5Ac(a2-3)Gal(b1-3)[Neu5Ac(a2-3)Gal(b1-4)]GlcNAc
# Summary of the method: as §1
# [20] = target: Neu5Ac(a2-3)Gal(b1-3)[Neu5Ac(a2-6)]GalNAc
# Summary of the method: as §1
# Neu5Ac(a2-3)Gal(b1-4)Glc = target: Neu5Ac(a2-3)Gal(b1-4)Glc
# Summary of the method: as §1
# [21] = target: Neu5Ac(a2-3)Gal(b1-4)GlcNAc
# Summary of the method: as §1
# [22] = target: Neu5Ac(a2-3)Gal(b1-4)GlcNAc(b1-2)Man(a1-3)[GlcNAc(b1-2)Man(b1-4)GlcNAc(b1-2)Man(a1-6)]Man(b1-4)GlcNAc(b1-4)GlcNAc
# Summary of the method: as §1
# [23] = target: Neu5Ac(a2-3)Gal(b1-4)GlcNAc(b1-2)Man(a1-3)[Neu5Ac(a2-6)Gal(b1-4)GlcNAc(b1-2)Man(a1-6)]Man(b1-4)GlcNAc(b1-4)GlcNAc
# Summary of the method: as §1
# [24] = target: Neu5Ac(a2-3)Gal(b1-4)GlcNAc(b1-3)Gal(b1-3)GlcNAc
# Summary of the method: as §1
# [25] = target: Neu5Ac(a2-3)Gal(b1-4)GlcNAc(b1-3)Gal(b1-4)GlcNAc
# Summary of the method: as §1
# [26] = target: Neu5Ac(a2-3)Gal(b1-4)GlcNAc(b1-3)Gal(b1-4)GlcNAc(b1-3)Gal(b1-4)GlcNAc
# Summary of the method: as §1
# [27] = target: Neu5Ac(a2-3)Gal(b1-4)GlcNAc(b1-3)Gal(b1-4)[Fuc(a1-3)]GlcNAc
# Summary of the method: as §1
# [28] = target: Neu5Ac(a2-3)Gal(b1-4)GlcNAc(b1-3)GalNAc
# Summary of the method: as §1
# [29] = target: Neu5Ac(a2-3)Gal(b1-4)GlcNAc(b1-6)[Gal(b1-3)]GalNAc
# Summary of the method: as §1
# [30] = target: Neu5Ac(a2-3)Gal(b1-4)GlcNAc(b1-6)[Neu5Ac(a2-3)Gal(b1-3)]GalNAc
# Summary of the method: as §1
# [31] = target: Neu5Ac(a2-3)Gal(b1-4)GlcNAc6S
# Summary of the method: as §1
# [32] = target: Neu5Ac(a2-3)Gal(b1-4)[Fuc(a1-3)]GlcNAc
# Summary of the method: as §1
# [33] = target: Neu5Ac(a2-3)Gal(b1-4)[Fuc(a1-3)]GlcNAc(b1-3)Gal
# Summary of the method: as §1
# [34] = target: Neu5Ac(a2-3)Gal(b1-4)[Fuc(a1-3)]GlcNAc(b1-3)Gal(b1-4)GlcNAc
# Summary of the method: as §1
# [35] = target: Neu5Ac(a2-3)Gal(b1-4)[Fuc(a1-3)]GlcNAc(b1-3)Gal(b1-4)[Fuc(a1-3)]GlcNAc(b1-3)Gal(b1-4)[Fuc(a1-3)]GlcNAc
# Summary of the method: as §1
# [36] = target: Neu5Ac(a2-3)Gal(b1-4)[Fuc(a1-3)]GlcNAc(b1-3)GalNAc
# Summary of the method: as §1
# [37] = target: Neu5Ac(a2-3)Gal(b1-4)[Fuc(a1-3)]GlcNAc(b1-6)[Gal(b1-3)]GalNAc
# Summary of the method: as §1
# [38] = target: Neu5Ac(a2-3)Gal(b1-4)[Fuc(a1-3)]GlcNAc(b1-6)[Neu5Ac(a2-3)Gal(b1-3)]GalNAc
# Summary of the method: as §1
# [39] = target: Neu5Ac(a2-3)Gal(b1-4)[Fuc(a1-3)]GlcNAc6S
# Summary of the method: as §1
# [40] = target: Neu5Ac(a2-3)Gal6S(b1-4)GlcNAc
# Summary of the method: as §1
binder,measurement,setting,value
B1,glycan array binding signal (z-score),[1],-0.094
same,glycan array binding signal (z-score),Man(a1-3)[Man(a1-6)]Man,-0.424
same,glycan array binding signal (z-score),[2],-0.242
same,glycan array binding signal (z-score),[3],-1.12
same,glycan array binding signal (z-score),[4],2.08
same,glycan array binding signal (z-score),[5],0.536
same,glycan array binding signal (z-score),Man(a1-6)Man,0.896
same,glycan array binding signal (z-score),Man(b1-4)GlcNAc,-0.224
same,glycan array binding signal (z-score),Neu5Ac(a2-3)Gal,-1.59
same,glycan array binding signal (z-score),[6],-0.014
same,glycan array binding signal (z-score),[7],-0.096
same,glycan array binding signal (z-score),[8],-0.064
same,glycan array binding signal (z-score),[9],0.46
same,glycan array binding signal (z-score),[10],-0.361
same,glycan array binding signal (z-score),[11],-1.18
same,glycan array binding signal (z-score),[12],-0.054
same,glycan array binding signal (z-score),[13],0.058
same,glycan array binding signal (z-score),[14],-0.483
same,glycan array binding signal (z-score),[15],1.12
same,glycan array binding signal (z-score),[16],-0.737
same,glycan array binding signal (z-score),[17],1.44
same,glycan array binding signal (z-score),[18],-0.584
same,glycan array binding signal (z-score),[19],0.084
same,glycan array binding signal (z-score),[20],1.58
same,glycan array binding signal (z-score),Neu5Ac(a2-3)Gal(b1-4)Glc,-0.215
same,glycan array binding signal (z-score),[21],-0.79
same,glycan array binding signal (z-score),[22],0.268
same,glycan array binding signal (z-score),[23],1.86
same,glycan array binding signal (z-score),[24],-0.268
same,glycan array binding signal (z-score),[25],0.262
same,glycan array binding signal (z-score),[26],-0.483
same,glycan array binding signal (z-score),[27],-0.462
same,glycan array binding signal (z-score),[28],1.43
same,glycan array binding signal (z-score),[29],-0.611
same,glycan array binding signal (z-score),[30],-0.781
same,glycan array binding signal (z-score),[31],1.38
same,glycan array binding signal (z-score),[32],-0.847
same,glycan array binding signal (z-score),[33],-0.238
same,glycan array binding signal (z-score),[34],-0.348
same,glycan array binding signal (z-score),[35],-0.789
same,glycan array binding signal (z-score),[36],3.4
same,glycan array binding signal (z-score),[37],2.02
same,glycan array binding signal (z-score),[38],4.66
same,glycan array binding signal (z-score),[39],-0.731
same,glycan array binding signal (z-score),[40],0.521

# As a working copy, part of the list above.
binder,measurement,setting,value
B1,glycan array binding signal (z-score),[13],0.058
same,glycan array binding signal (z-score),[14],-0.483
same,glycan array binding signal (z-score),[15],1.12
same,glycan array binding signal (z-score),[16],-0.737
same,glycan array binding signal (z-score),[17],1.44
same,glycan array binding signal (z-score),[18],-0.584
same,glycan array binding signal (z-score),[19],0.084
same,glycan array binding signal (z-score),[20],1.58
same,glycan array binding signal (z-score),Neu5Ac(a2-3)Gal(b1-4)Glc,-0.215
same,glycan array binding signal (z-score),[21],-0.79
same,glycan array binding signal (z-score),[22],0.268
same,glycan array binding signal (z-score),[23],1.86
same,glycan array binding signal (z-score),[24],-0.268
